Data reported in PMC7362484.
These are yes or no findings as the source states them, for the method shown. Binding seen in cells or lysates may run through a third protein. Binding can be weak; no strength is given.

By UniProt entry, the sequences of proteins in these tests, tags left out. Where a name states a change or a piece, a line headed by the entry shows the natural chain unless it says otherwise.
UniProt Q9C0F0: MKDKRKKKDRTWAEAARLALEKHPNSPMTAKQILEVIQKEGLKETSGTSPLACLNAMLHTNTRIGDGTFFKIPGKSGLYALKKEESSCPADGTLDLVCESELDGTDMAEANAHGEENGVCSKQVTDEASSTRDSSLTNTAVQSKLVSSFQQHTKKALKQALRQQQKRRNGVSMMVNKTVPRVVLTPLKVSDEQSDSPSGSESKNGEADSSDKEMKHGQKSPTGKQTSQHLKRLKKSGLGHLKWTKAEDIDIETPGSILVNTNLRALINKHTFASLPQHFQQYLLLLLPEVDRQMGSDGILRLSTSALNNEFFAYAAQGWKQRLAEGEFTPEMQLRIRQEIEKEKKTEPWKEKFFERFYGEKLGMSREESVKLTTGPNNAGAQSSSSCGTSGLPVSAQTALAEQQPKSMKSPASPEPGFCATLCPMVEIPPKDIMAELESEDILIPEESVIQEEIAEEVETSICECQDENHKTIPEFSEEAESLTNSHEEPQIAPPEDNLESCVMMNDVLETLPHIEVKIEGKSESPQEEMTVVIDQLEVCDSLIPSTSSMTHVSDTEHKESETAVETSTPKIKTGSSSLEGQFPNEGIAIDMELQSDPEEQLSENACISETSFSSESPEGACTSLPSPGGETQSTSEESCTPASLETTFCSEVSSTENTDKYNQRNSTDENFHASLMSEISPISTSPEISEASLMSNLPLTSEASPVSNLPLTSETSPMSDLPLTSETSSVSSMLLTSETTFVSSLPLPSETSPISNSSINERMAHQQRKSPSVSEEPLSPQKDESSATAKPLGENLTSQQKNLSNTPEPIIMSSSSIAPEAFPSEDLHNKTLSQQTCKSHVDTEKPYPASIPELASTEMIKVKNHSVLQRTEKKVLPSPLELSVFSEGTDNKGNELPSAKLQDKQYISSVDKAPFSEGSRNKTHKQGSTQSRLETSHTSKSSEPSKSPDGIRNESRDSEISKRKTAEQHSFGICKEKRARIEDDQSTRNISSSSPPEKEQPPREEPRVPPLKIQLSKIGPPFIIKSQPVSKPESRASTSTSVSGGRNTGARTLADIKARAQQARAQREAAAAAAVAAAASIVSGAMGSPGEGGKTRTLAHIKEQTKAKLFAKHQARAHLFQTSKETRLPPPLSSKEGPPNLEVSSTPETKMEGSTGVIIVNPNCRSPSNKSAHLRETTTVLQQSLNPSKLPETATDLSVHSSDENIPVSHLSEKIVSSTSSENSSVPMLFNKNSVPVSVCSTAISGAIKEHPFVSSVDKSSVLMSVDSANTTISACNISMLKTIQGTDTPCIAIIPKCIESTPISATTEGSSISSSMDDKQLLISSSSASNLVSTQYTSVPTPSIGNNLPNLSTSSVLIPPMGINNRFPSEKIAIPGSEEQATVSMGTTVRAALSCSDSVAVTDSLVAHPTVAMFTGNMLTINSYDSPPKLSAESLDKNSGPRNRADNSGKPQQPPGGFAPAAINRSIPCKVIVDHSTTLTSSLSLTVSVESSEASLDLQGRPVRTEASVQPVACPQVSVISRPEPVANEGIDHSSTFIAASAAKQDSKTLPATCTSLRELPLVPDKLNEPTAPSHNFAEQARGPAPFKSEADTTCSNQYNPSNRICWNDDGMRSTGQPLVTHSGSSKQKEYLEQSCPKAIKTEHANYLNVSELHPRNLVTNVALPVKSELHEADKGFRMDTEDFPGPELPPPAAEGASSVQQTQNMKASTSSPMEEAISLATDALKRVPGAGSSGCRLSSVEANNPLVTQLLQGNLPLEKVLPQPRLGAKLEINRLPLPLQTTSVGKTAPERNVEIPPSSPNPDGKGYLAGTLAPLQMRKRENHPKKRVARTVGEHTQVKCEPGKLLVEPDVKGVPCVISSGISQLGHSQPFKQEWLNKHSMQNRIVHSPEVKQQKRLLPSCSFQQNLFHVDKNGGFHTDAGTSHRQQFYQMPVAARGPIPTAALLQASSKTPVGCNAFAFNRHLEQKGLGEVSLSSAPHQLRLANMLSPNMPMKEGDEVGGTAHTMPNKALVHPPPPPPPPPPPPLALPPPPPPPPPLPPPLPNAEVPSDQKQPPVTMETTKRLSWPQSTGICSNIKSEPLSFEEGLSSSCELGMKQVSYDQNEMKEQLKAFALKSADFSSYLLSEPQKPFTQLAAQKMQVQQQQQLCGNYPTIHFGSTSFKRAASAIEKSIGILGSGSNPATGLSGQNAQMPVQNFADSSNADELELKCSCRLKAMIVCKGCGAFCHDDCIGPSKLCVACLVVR
UniProt Q92560: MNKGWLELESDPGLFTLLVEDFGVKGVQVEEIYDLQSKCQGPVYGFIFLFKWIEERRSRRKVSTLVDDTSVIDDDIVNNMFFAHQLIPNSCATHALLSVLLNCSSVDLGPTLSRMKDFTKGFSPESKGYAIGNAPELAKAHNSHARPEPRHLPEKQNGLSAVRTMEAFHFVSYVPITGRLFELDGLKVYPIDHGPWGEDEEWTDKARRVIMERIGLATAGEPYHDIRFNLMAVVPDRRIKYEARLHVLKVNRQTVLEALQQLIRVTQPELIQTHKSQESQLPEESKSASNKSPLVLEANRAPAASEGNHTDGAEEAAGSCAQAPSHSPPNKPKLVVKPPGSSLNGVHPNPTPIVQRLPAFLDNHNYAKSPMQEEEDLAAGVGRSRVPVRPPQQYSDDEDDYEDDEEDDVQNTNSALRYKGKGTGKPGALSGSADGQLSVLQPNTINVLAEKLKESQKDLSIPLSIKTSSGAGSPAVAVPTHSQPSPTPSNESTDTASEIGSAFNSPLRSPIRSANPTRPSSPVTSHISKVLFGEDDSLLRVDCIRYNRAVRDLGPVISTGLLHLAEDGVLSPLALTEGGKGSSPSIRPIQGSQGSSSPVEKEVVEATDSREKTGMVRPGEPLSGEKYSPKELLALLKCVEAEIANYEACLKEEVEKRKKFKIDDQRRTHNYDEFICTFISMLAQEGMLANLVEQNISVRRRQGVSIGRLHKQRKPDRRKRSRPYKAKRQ

Molecular target: GFP-ASXL3-ΔBBM (human) (UniProt Q9C0F0)
Test: co-IP; HEK293T cells 24 h after transfection with GFP, GFP-ASXL1-3, GFP-ASXL3-FL or GFP-ASXL3-ΔBBM; IP from whole cell lysates with antibodies against the GFP epitope, immunoblot of endogenous proteins; Triton lysis buffer (50 mM Tris pH 8.0, 150 mM NaCl, 0.5% Triton X100, benzonase)

With “BRCA1-associated protein 1 (BAP1), endogenous in HEK293T cells (from UniProt Q92560 1-729) (enzyme)” as the substance, how does the binding read?
Its binding is “binds”.
